Drawing on PMC12547303, this text covers binding for 9 molecules.

For test [1], the target named is T1, GST fusion of the CNNM2 CNBH domain (582–875) (mouse) (UniProt Q3TWN3).
T1 sequence: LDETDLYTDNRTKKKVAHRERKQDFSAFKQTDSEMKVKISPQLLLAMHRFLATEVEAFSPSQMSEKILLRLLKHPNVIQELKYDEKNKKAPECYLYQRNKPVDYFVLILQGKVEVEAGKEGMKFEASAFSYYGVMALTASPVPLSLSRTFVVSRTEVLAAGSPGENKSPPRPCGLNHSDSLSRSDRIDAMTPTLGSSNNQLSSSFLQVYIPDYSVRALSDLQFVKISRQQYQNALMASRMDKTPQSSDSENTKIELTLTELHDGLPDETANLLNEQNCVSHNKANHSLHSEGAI
Description: pull-down; GST fusion proteins bound to glutathione agarose beads incubated with cleared lysates of HEK-293T cells expressing TRPM7 fragments (overnight at 4 °C by the methods, 4 h by the legend); washed with PBS 0.1% Triton X-100; Western blot; 1 mM Mg·ATP in the lysate in some samples with …; only the target purified. In general terms: Immunoblotting shows a protein as a band on a membrane.

Test [2] concerns the target GST fusion of the CNNM2 CBS domain (495–582) (mouse) (UniProt Q3TWN3). The description is as above.
The target in test [3] is HA-tagged TRPM7 (murine) (mouse) (UniProt Q923J1). Description: co-IP; HEK-293T co-transfected for 48 h; HA-TRPM7 immunoprecipitated with anti-HA magnetic beads from mild lysis buffer overnight at 4 °C, washed with PBS 0.1% Triton X-100; FLAG-tagged CNNM2 constructs detected by Western blot; media with 20 mM MgCl2 (Fig. 1B); 1 mM Mg·ATP in the lysis buffer in some samples with SUMO-CBS.

Residue numbers refer to the chain shown, from its start. In names and notes the source's numbering stands. Results are given in words; binding and its absence hold for the method and conditions named. In cells and extracts the contact can be indirect. Some entries that bind do so weakly or less than the wild type. Where a sequence is shown, tags or fusion partners need not be part of it.

B1: TRPM7 ST rich region fused to mfGFP, M7-ST (1288–1594) (domain or fragment, UniProt Q923J1 1288-1594)
chain: WKKPSAVNTLSSSLPQGDRESNNPFLCNIFMKDEKDPQYNLFGQDLPVIPQRKEFNIPEAGSSCGALFPSAVSPPELRQRRHGVEMLKIFNKNQKLGSSPNSSPHMSSPPTKFSVSTPSQPSCKSHLESTTKDQEPIFYKAAEGDNIEFGAFVGHRDSMDLQRFKETSNKIRELLSNDTPENTLKHVGAAGYSECCKTSTSLHSVQAESCSRRASTEDSPEVDSKAALLPDWLRDRPSNREMPSEGGTLNGLASPFKPVLDTNYYYSAVERNNLMRLSQSIPFVPVPPRGEPVTVYRLEESSPSILN
As for B1, the binding entry in test [1] and in test [2] was “binds” each time.

B2: FLAG-tagged CNNM2 lacking the CNBH domain, CNNM2-ΔCNBH (1–582) (domain or fragment, UniProt Q3TWN3 1-582)
chain: MIGCGACEPEVKMAGGQAAAALPTWKMAARRSLSARGRGVLQAAAGRLLPLLLLSCCWGAGGCTAAGENEETVIIGLRLEDTNDVSFMEGGALRVSERTRVKLRVYGQNINNETWSRIAFTEHERRRHTPSERGLGGPAPPEPDSGPQRCGIRTSDIIILPHIILNRRTSGIIEIEIKPLRKMEKSKSYYLCTSLSTPALGAGGSGSASGTVGGKGGAGVAGLPPPPWAETTWIYHDGEDTKMIVGEEKKFLLPFWLQVIFISLLLCLSGMFSGLNLGLMALDPMELRIVQNCGTEKEKNYAKRIEPVRRQGNYLLCSLLLGNVLVNTTLTILLDDIAGSGLVAVVVSTIGIVIFGEIVPQAICSRHGLAVGANTIFLTKFFMMMTFPASYPVSKLLDCVLGQEIGTVYNREKLLEMLRVTDPYNDLVKEELNIIQGALELRTKTVEDVMTPLRDCFMITGEAILDFNTMSEIMESGYTRIPVFEGERSNIVDLLFVKDLAFVDPDDCTPLKTITKFYNHPLHFVFNDTKLDAMLEEFKKGKSHLAIVQRVNNEGEGDPFYEVLGIVTLEDVIEEIIKSEIL
Turning to B2, the binding entry in test [3] was “binds”.

B3: TRPM7 ST rich region with catalytic kinase domain fused to mfGFP, M7-ST-KIN (1288–1862) (domain or fragment, UniProt Q923J1 1288-1862)
chain: WKKPSAVNTLSSSLPQGDRESNNPFLCNIFMKDEKDPQYNLFGQDLPVIPQRKEFNIPEAGSSCGALFPSAVSPPELRQRRHGVEMLKIFNKNQKLGSSPNSSPHMSSPPTKFSVSTPSQPSCKSHLESTTKDQEPIFYKAAEGDNIEFGAFVGHRDSMDLQRFKETSNKIRELLSNDTPENTLKHVGAAGYSECCKTSTSLHSVQAESCSRRASTEDSPEVDSKAALLPDWLRDRPSNREMPSEGGTLNGLASPFKPVLDTNYYYSAVERNNLMRLSQSIPFVPVPPRGEPVTVYRLEESSPSILNNSMSSWSQLGLCAKIEFLSKEEMGGGLRRAVKVLCTWSEHDILKSGHLYIIKSFLPEVINTWSSIYKEDTVLHLCLREIQQQRAAQKLTFAFNQMKPKSIPYSPRFLEVFLLYCHSAGQWFAVEECMTGEFRKYNNNNGDEIIPTNTLEEIMLAFSHWTYEYTRGELLVLDLQGVGENLTDPSVIKAEEKRSCDMVFGPANLGEDAIKNFRAKHHCNSCCRKLKLPDLKRNDYTPDKIIFPQDESSDLNLQSGNSTKESEATNSVRLM
For B3, the binding result in test [1] and in test [2] was “binds” each time.

B4: TRPM7 NH2-terminal fragment M7-NTERM (1–757) (domain or fragment, UniProt Q923J1 1-757)
chain: MSQKSWIESTLTKRECVYIIPSSKDPHRCLPGCQICQQLVRCFCGRLVKQHACFTASLAMKYSDVKLGEHFNQAIEEWSVEKHTEQSPTDAYGVINFQGGSHSYRAKYVRLSYDTKPEIILQLLLKEWQMELPKLVISVHGGMQKFELHPRIKQLLGKGLIKAAVTTGAWILTGGVNTGVAKHVGDALKEHASRSSRKICTIGIAPWGVIENRNDLVGRDVVAPYQTLLNPLSKLNVLNNLHSHFILVDDGTVGKYGAEVRLRRELEKTINQQRIHARIGQGVPVVALIFEGGPNVILTVLEYLQESPPVPVVVCEGTGRAADLLAYIHKQTEEGGNLPDAAEPDIISTIKKTFNFGQSEAVHLFQTMMECMKKKELITVFHIGSEDHQDIDVAILTALLKGTNASAFDQLILTLAWDRVDIAKNHVFVYGQQWLVGSLEQAMLDALVMDRVSFVKLLIENGVSMHKFLTIPRLEELYNTKQGPTNPMLFHLIRDVKQGNLPPGYKITLIDIGLVIEYLMGGTYRCTYTRKRFRLIYNSLGGNNRRSGRNTSSSTPQLRKSHETFGNRADKKEKMRHNHFIKTAQPYRPKMDASMEEGKKKRTKDEIVDIDDPETKRFPYPLNELLIWACLMKRQVMARFLWQHGEESMAKALVACKIYRSMAYEAKQSDLVDDTSEELKQYSNDFGQLAVELLEQSFRQDETMAMKLLTYELKNWSNSTCLKLAVSSRLRPFVAHTCTQMLLSDMWMGRLNMRKNS
For the molecule B4, the binding result in test [1] is “no binding”; in test [2], “binds”.

B5: FLAG-tagged CNNM2 lacking the CBS-pair domain, CNNM2-ΔCBS(469–578) (protein, UniProt Q3TWN3)
chain: MIGCGACEPEVKMAGGQAAAALPTWKMAARRSLSARGRGVLQAAAGRLLPLLLLSCCWGAGGCTAAGENEETVIIGLRLEDTNDVSFMEGGALRVSERTRVKLRVYGQNINNETWSRIAFTEHERRRHTPSERGLGGPAPPEPDSGPQRCGIRTSDIIILPHIILNRRTSGIIEIEIKPLRKMEKSKSYYLCTSLSTPALGAGGSGSASGTVGGKGGAGVAGLPPPPWAETTWIYHDGEDTKMIVGEEKKFLLPFWLQVIFISLLLCLSGMFSGLNLGLMALDPMELRIVQNCGTEKEKNYAKRIEPVRRQGNYLLCSLLLGNVLVNTTLTILLDDIAGSGLVAVVVSTIGIVIFGEIVPQAICSRHGLAVGANTIFLTKFFMMMTFPASYPVSKLLDCVLGQEIGTVYNREKLLEMLRVTDPYNDLVKEELNIIQGALELRTKTVEDVMTPLRDCFMITGEAILDFNSEILDETDLYTDNRTKKKVAHRERKQDFSAFKQTDSEMKVKISPQLLLAMHRFLATEVEAFSPSQMSEKILLRLLKHPNVIQELKYDEKNKKAPECYLYQRNKPVDYFVLILQGKVEVEAGKEGMKFEASAFSYYGVMALTASPVPLSLSRTFVVSRTEVLAAGSPGENKSPPRPCGLNHSDSLSRSDRIDAMTPTLGSSNNQLSSSFLQVYIPDYSVRALSDLQFVKISRQQYQNALMASRMDKTPQSSDSENTKIELTLTELHDGLPDETANLLNEQNCVSHNKANHSLHSEGAI
Turning to B5, in test [3], the binding entry is recorded as “binds”.

B6: FLAG-tagged CNNM2 NH2-terminal domain, CNNM2-NTERM (1–402) (domain or fragment, UniProt Q3TWN3 1-402)
chain: MIGCGACEPEVKMAGGQAAAALPTWKMAARRSLSARGRGVLQAAAGRLLPLLLLSCCWGAGGCTAAGENEETVIIGLRLEDTNDVSFMEGGALRVSERTRVKLRVYGQNINNETWSRIAFTEHERRRHTPSERGLGGPAPPEPDSGPQRCGIRTSDIIILPHIILNRRTSGIIEIEIKPLRKMEKSKSYYLCTSLSTPALGAGGSGSASGTVGGKGGAGVAGLPPPPWAETTWIYHDGEDTKMIVGEEKKFLLPFWLQVIFISLLLCLSGMFSGLNLGLMALDPMELRIVQNCGTEKEKNYAKRIEPVRRQGNYLLCSLLLGNVLVNTTLTILLDDIAGSGLVAVVVSTIGIVIFGEIVPQAICSRHGLAVGANTIFLTKFFMMMTFPASYPVSKLLDCVLG
As to B6, in test [3], the binding result was “binds”.

B7: TRPM7 COOH-terminal fragment fused to mfGFP, M7-CTERM (1120–1862) (domain or fragment, UniProt Q923J1 1120-1862)
chain: MAYHEKPVLPPPLIILSHIVSLFCCVCKRRKKDKTSDGPKLFLTEEDQKKLHDFEEQCVEMYFDEKDDKFNSGSEERIRVTFERVEQMSIQIKEVGDRVNYIKRSLQSLDSQIGHLQDLSALTVDTLKTLTAQKASEASKVHNEITRELSISKHLAQNLIDDVPVRPLWKKPSAVNTLSSSLPQGDRESNNPFLCNIFMKDEKDPQYNLFGQDLPVIPQRKEFNIPEAGSSCGALFPSAVSPPELRQRRHGVEMLKIFNKNQKLGSSPNSSPHMSSPPTKFSVSTPSQPSCKSHLESTTKDQEPIFYKAAEGDNIEFGAFVGHRDSMDLQRFKETSNKIRELLSNDTPENTLKHVGAAGYSECCKTSTSLHSVQAESCSRRASTEDSPEVDSKAALLPDWLRDRPSNREMPSEGGTLNGLASPFKPVLDTNYYYSAVERNNLMRLSQSIPFVPVPPRGEPVTVYRLEESSPSILNNSMSSWSQLGLCAKIEFLSKEEMGGGLRRAVKVLCTWSEHDILKSGHLYIIKSFLPEVINTWSSIYKEDTVLHLCLREIQQQRAAQKLTFAFNQMKPKSIPYSPRFLEVFLLYCHSAGQWFAVEECMTGEFRKYNNNNGDEIIPTNTLEEIMLAFSHWTYEYTRGELLVLDLQGVGENLTDPSVIKAEEKRSCDMVFGPANLGEDAIKNFRAKHHCNSCCRKLKLPDLKRNDYTPDKIIFPQDESSDLNLQSGNSTKESEATNSVRLM
As for B7, the binding result in test [1] and in test [2] was “binds” in each case.

B8: kinase-inactive (K1646R) TRPM7 COOH-terminal fragment fused to mfGFP, M7-CTERM-KI (1120–1862) (domain or fragment, UniProt Q923J1 1120-1862)
chain: B7 chain with K527R
On to B8, for which the binding entry in test [1] and in test [2] was “binds” in each case.

B9: TRPM7 catalytic kinase domain fused to mfGFP, M7-KIN (1510–1862) (domain or fragment, UniProt Q923J1 1510-1862)
chain: DSKAALLPDWLRDRPSNREMPSEGGTLNGLASPFKPVLDTNYYYSAVERNNLMRLSQSIPFVPVPPRGEPVTVYRLEESSPSILNNSMSSWSQLGLCAKIEFLSKEEMGGGLRRAVKVLCTWSEHDILKSGHLYIIKSFLPEVINTWSSIYKEDTVLHLCLREIQQQRAAQKLTFAFNQMKPKSIPYSPRFLEVFLLYCHSAGQWFAVEECMTGEFRKYNNNNGDEIIPTNTLEEIMLAFSHWTYEYTRGELLVLDLQGVGENLTDPSVIKAEEKRSCDMVFGPANLGEDAIKNFRAKHHCNSCCRKLKLPDLKRNDYTPDKIIFPQDESSDLNLQSGNSTKESEATNSVRLM
As to B9, the values for the binding entry in test [1] and in test [2] were “binds” and “no binding”, respectively.
